Measured values from US20030190364A1, “Biological affinity based delivery systems” (priority 2002, published 2003).
Entries after “also recorded” stand apart in the source; their conditions may differ.

Key:
[1] = Preliminary diffusion study, wash-out of peptides from heparin:PEG10-4PBD1 gels in 96-well plate; conditions: for peptide recovered after 18 washes: 10% gels 2:1 heparin:PEG10-4PBD1, 1:4 peptide:heparin, PBS pH 7.4 washes
[2] = Diffusion of heparin-binding peptides from heparin-based gels in dispodialyzers; conditions: for Initial Release Rate (% of total peptide released per day): 10% gels 1:2 heparin:PBD1-conjugated 4 arm PEG, 2 peptides per heparin, into PBS
[3] = heparin gel in dispodialyzer, PBS
[4] = control: peptide-conjugated PEG and PBD3 alone, no heparin

| Substance | peptide recovered after 18 washes [1] | Initial Release Rate (% of total peptide released per day) [2] | peptide recovered/released after 2 weeks [2, 3] | peptide recovered after 18 washes, control solutions ([1]; control: PEG10-4PBD1 and PBD3 without heparin) | Initial Release Rate (% of total peptide released per day), control without heparin [2, 4] | release rate, control without heparin (in words) [2, 4] | diffusion rate out of heparin gel (in words) ([2]; gels containing heparin) | peptide released after one day [2, 3] |
| --- | --- | --- | --- | --- | --- | --- | --- | --- |
| FITC-A(β)AAFAKLAARLYRKAGC (AAAFAKLAARLYRKAGC; FITC-beta-Ala N-terminal) [PBD2] | about 60% | 1.3 % of total peptide released per day |  |  |  |  |  |  |
| FITC-A(β)GGGGYGRKKRRQRRR (AGGGGYGRKKRRQRRR; FITC-beta-Ala N-terminal) [TAT, reference compound] |  | 0.04 % of total peptide released per day | Almost none; also recorded: did not release |  |  |  |  |  |
| FITC-A(β)KAFAALAARLYRKAGC (AKAFAALAARLYRKAGC; N-terminal FITC-beta-alanine) [PBD3, PBD3 control is the same peptide tested without heparin] | approximately 80% | 3.4 % of total peptide released per day |  | all | 25 % of total peptide released per day | fast rate | faster diffusion rate than PBD2 |  |
| RGDS [reference compound] |  | 93 % of total peptide released per day |  |  |  |  |  | almost all |
